Assay results published in US20110053889A1, “Prenatal and postnatal screening and treatment of critical monosaccharide deficiencies for neurologic and immunologic function” (priority 2008, published 2011).
“And” between values parts separate entries of the source, which are not always exact repeats. Equal entries are not always repeated.

Experiments:
[1] = Breast milk monosaccharides by maternal Lewis blood-group phenotype (anion exchange chromatography); set-up: species or system human; details: for Breast milk monosaccharide, Term, Lewis non-secretor types (a+/−, b−): d. 1-6, n = 5, M±SD; for Breast milk monosaccharide, Term, Lewis secretor (a−, b+): d. 1-6, n = 6, M±SD; for Breast milk monosaccharide, Term, combined Lewis secretor/non-secretor types: d. 1-6, n = 11, M±SD; for Breast milk monosaccharide, Preterm, combined Lewis secretor/non-secretor types: d. 1-6, n = 20, M±SD; for Breast milk monosaccharide, Preterm, combined Lewis types: n = 12, M±SD
[2] = Monosaccharide composition of preterm and term breast milk and infant formulas by gestational and postnatal age; set-up: species or system human; details: for trend of breast milk monosaccharide as gestation progresses towards term, 1-6 d / trend of breast milk monosaccharide as gestation progresses towards term, 1 month / trend of breast milk monosaccharide as gestation progresses towards term, 7-10 d: 30 to ≧38 wks; for trend of breast milk monosaccharide as gestation progresses towards term, 1-6 d: milk at 1-6 d; for trend of breast milk monosaccharide as gestation progresses towards term, 1 month: milk at 1 month; for trend of breast milk monosaccharide as gestation progresses towards term, 7-10 d: milk at 7-10 d; for Breast milk monosaccharide at term adjusted age, Preterm (30-37 wks): M±SD; for Breast milk monosaccharide, Term (38-41 wks): term milk at day 1-6, M±SD

SMILES	Breast milk monosaccharide, Term, Lewis non-secretor types (a+/−, b−) [1] [mg/L]	Breast milk monosaccharide, Term, Lewis secretor (a−, b+) [1]	Breast milk monosaccharide, Preterm, Lewis secretor (a−, b+) ([1]; d. 1-6, n = 7, M±SD) [mg/L]	Breast milk monosaccharide, Term, combined Lewis secretor/non-secretor types [1] [mg/L]	Breast milk monosaccharide, Preterm, Lewis non-secretor types (a+/−, b−) ([1]; d. 1-6, n = 13, M±SD) [mg/L]	Breast milk monosaccharide, Preterm, combined Lewis secretor/non-secretor types [1] [mg/L]	Breast milk monosaccharide, Preterm, Lewis secretor (a−, b+) ([1]; term adjusted age, n = 4, M±SD) [mg/L]	Breast milk monosaccharide, Preterm, Lewis non-secretor types (a+/−, b−) ([1]; term adjusted age, n = 8, M±SD) [mg/L]	Breast milk monosaccharide, Preterm, combined Lewis types ([1]; term adjusted age) [mg/L]	trend of breast milk monosaccharide as gestation progresses towards term, 1-6 d [2]	trend of breast milk monosaccharide as gestation progresses towards term, 1 month [2]	trend of breast milk monosaccharide as gestation progresses towards term, 7-10 d [2]	Breast milk monosaccharide at term adjusted age, Preterm (30-37 wks) [2] [mg/L]	Breast milk monosaccharide, Term (38-41 wks) [2] [mg/L]	change in preterm milk (vs. term), Birth, Lewis Combined ([1]; significant changes only)	change in preterm milk (vs. term), Birth, Non-secretor types ([1]; significant changes only)	change in term adjusted age milk (vs. term), Lewis Combined ([1]; significant changes only)	change in term adjusted age milk (vs. term), Non-secretor types ([1]; significant changes only)	change in term adjusted age milk (vs. term), Secretor ([1]; significant changes only)	presence in infant formulas ([2]; preterm, preterm post-discharge, term and soy formulas)
C[C@H](O)[C@@H](O)[C@@H](O)[C@H](O)C=O [Fucose, L-fucose]	1265 ± 578	2760 ± 1738 mg/L	3122 ± 1020	2080 ± 1501	1146 ± 448	1838 ± 1179	2783 ± 774	1274 ± 687	1777 ± 1008	↑	=	↑	1777 ± 1008	2080 ± 1501	–	–	–	–	–	–
N[C@H]1C(O)O[C@H](CO)[C@H](O)[C@@H]1O (stereo partly shown) [Galactosamine, galactosamine]	319 ± 94	366 ± 72 mg/L	348 ± 169	345 ± 82	179 ± 41	238 ± 130	196 ± 88	129 ± 40	152 ± 65	↑	↑	=	152 ± 65	345 ± 82	↓	↓	↓	↓	↓	–
O=C[C@H](O)[C@@H](O)[C@@H](O)[C@H](O)CO [Galactose, D-galactose]	24690 ± 2234	22290 ± 3162 mg/L and 22291 ± 3162 mg/L	24165 ± 3369	23381 ± 2927	24302 ± 3105	24254 ± 3111	26540 ± 5707	27296 ± 4071	27044 ± 4424	=	=	↑	27044 ± 4424	23381 ± 2927	–	–	↑	–	–	found in all infant formulas tested
